From patent publication US20190264189A1
These are yes or no findings as the source states them, for the method shown. Binding seen in cells or lysates may run through a third protein. Some results given as binding are weak or reduced against the parent protein; the word gives no strength.

Amino acid sequences for entries named in this document (tags omitted). A change or cut given only in a name is not applied to a line headed by its entry.
UniProt Q01341: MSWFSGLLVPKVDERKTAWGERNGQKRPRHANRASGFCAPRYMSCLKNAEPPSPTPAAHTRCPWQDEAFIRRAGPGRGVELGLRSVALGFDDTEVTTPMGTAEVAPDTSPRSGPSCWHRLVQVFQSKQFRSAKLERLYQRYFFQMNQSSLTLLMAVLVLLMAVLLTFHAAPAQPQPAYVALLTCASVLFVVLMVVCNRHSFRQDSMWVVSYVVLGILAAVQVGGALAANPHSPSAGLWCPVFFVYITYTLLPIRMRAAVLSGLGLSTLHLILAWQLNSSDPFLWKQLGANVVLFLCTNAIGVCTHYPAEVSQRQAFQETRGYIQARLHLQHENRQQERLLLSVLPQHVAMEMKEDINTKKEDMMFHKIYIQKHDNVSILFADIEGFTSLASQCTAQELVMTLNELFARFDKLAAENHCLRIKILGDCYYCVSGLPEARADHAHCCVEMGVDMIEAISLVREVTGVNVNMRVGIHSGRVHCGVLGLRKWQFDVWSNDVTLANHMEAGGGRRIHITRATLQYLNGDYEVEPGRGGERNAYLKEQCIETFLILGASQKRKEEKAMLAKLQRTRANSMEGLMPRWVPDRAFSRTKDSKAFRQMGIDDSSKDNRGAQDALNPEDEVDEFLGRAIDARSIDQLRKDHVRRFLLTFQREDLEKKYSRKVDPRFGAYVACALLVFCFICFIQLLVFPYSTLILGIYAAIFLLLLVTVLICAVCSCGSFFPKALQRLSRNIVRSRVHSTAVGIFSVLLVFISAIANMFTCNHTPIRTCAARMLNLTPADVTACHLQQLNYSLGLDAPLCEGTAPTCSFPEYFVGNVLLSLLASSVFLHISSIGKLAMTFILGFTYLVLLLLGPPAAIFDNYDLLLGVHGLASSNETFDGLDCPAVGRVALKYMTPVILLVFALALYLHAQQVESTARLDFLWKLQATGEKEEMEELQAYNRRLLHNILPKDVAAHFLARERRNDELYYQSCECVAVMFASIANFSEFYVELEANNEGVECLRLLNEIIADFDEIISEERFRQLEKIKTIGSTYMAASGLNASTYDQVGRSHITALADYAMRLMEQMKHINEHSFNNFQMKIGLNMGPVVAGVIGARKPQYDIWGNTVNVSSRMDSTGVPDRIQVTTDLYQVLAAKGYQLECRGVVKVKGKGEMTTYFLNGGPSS

How the values were obtained:
aB-crystallin (CryAB) [1] = target: T1, aB-crystallin (CryAB) (UniProt P23928); test: co-immunoprecipitation
T1 sequence (looked up): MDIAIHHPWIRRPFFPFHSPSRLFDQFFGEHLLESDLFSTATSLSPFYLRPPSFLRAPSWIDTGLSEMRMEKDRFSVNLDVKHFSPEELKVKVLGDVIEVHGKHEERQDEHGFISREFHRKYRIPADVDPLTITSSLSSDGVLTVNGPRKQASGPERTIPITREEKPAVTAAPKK

aB-crystallin (CryAB) [2] = target: T1, aB-crystallin (CryAB); test: co-immunoprecipitation and immunoblotting, cardiac myocytes after C1C2 gene transfer
aB-crystallin (CryAB) [3] = target: T1, aB-crystallin (CryAB); test: reciprocal co-immunoprecipitation and immunoblotting, cultured cardiac myocytes after adenovirus-mediated C1C2 gene transfer

Measured: binding

C1C2 fusion protein (cytoplasmic domains C1 and C2 of mouse adenylyl cyclase type 6 joined by a 12-amino-acid linker, C-terminal AU1 epitope tag) (from UniProt Q01341 350-1157 at identity 1.00))
binds: all assays above
